For the test, the system named is BDF1 mice, intracerebral B16 melanoma, median survival T/C. The test is described as follows: NCI In Vivo Anticancer Drug Screen. Data for tumor model B16 Melanoma (intracerebral) in B6D2F1 (BDF1) mice. As to conditions: T/C endpoint: median survival time, schedule: Q01DX009 (ip), vehicle: water, higher T/C = longer survival. As to the method: The antitumor activity of compounds was measured in mice bearing transplantable tumors. Survival or tumor size were measured and the results are expressed as the measurement made in the treated group (T) divided by the measurement made in the vehicle treated control group (C). The tumor model used in this assay is B16 Melanoma (intracerebral) in B6D2F1 (BDF1) mice

The structures appear in SMILES notation. The list shows only some results of the screen, not a fair sample: its compounds were picked by chemical class. Not every dose and run of a compound is shown. T/C: endpoint of the treated group in % of that of the vehicle group. For survival time, this PubChem deposit counts one and a half times the control or more as active, and values a quarter to a half above the control carry no call in these data; other NCI protocols may use other cut-offs. Some entries show no survivor count and are marked so; the dose need not have been tolerated. Schedule codes are those of the source, read here as Q, the interval in days (D) or hours (H), X, the number of doses.

In PubChem BioAssay AID196 (DTP/NCI, 2004) one finds T/C data, which are given here for 1 molecule.

Consider `CN(CCCl)CCCl`, for which the T/C by setting is: (dose: 0.25 mg/kg/injection) 100 % of control [survivor count not shown]; (dose: 0.5 mg/kg/injection) 100 % of control [survivor count not shown].
